No constants are given. Whether binding was seen depends on the method and setting. Binding seen in cells or lysates may run through a third protein. Some binding calls cover weakened binding; strength is not graded here. Where a sequence is shown, tags or fusion partners need not be part of it.

Results on one molecule are retold here after article PMC7607384.

Test [1] concerns the target T1, Flag-MTG16 (UniProt O75081).
T1 sequence: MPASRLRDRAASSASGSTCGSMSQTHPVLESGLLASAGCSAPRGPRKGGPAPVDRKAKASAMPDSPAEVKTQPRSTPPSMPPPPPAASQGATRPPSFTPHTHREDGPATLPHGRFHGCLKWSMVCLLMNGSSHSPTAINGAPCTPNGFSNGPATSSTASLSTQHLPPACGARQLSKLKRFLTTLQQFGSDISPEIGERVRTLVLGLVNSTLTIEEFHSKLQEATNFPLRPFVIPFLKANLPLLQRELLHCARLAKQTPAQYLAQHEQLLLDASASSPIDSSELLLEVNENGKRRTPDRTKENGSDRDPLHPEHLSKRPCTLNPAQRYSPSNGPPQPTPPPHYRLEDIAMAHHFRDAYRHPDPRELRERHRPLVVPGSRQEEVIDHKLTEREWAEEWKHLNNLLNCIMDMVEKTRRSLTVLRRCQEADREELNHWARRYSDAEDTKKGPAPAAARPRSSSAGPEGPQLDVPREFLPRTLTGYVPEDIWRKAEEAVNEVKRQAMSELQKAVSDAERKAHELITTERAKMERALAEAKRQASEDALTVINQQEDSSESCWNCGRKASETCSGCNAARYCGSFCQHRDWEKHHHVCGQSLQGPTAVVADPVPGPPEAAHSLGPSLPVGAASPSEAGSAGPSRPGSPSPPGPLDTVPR
The test is described as follows: co-IP; HEK293T lysates (150 mM NaCl, 30 mM Tris pH 7.5, 1 mM EDTA, 1% Triton X-100, 10% glycerol, 0.5 mM DTT), precleared with IgG-agarose; Flag complexes precipitated with anti-Flag-M2 affinity beads at 4°C overnight; western blot. On the technique in general: Immunoblotting shows a protein as a band on a membrane.

The target of test [2] is T2, Flag-MTG8 (UniProt Q06455).
T2 sequence: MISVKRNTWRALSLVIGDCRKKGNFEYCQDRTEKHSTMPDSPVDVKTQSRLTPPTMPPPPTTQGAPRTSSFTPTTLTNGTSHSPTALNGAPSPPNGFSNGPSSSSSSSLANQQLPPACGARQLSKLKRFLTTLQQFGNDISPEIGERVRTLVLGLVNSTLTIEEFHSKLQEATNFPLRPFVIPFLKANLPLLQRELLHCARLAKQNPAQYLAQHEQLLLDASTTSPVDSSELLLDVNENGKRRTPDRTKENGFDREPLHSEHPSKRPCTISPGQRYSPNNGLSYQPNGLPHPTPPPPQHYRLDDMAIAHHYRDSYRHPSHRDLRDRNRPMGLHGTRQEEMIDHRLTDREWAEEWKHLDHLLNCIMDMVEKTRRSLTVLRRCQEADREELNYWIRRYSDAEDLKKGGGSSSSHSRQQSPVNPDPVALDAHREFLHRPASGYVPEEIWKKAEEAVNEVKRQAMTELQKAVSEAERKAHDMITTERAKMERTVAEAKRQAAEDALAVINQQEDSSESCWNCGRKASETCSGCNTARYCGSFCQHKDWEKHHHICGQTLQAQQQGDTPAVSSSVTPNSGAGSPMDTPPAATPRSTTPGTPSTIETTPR
The test is described as above.

B1: ATOH1 (protein, UniProt Q92858 1-354)
chain: MSRLLHAEEWAEVKELGDHHRQPQPHHLPQPPPPPQPPATLQAREHPVYPPELSLLDSTDPRAWLAPTLQGICTARAAQYLLHSPELGASEAAAPRDEVDGRGELVRRSSGGASSSKSPGPVKVREQLCKLKGGVVVDELGCSRQRAPSSKQVNGVQKQRRLAANARERRRMHGLNHAFDQLRNVIPSFNNDKKLSKYETLQMAQIYINALSELLQTPSGGEQPPPPPASCKSDHHHLRTAASYEGGAGNATAAGAQQASGGSQRPTPPGSCRTRFSAPASAGGYSVQLDALHFSTFEDSALTAMMAQKNLSPSLPGSILQPVQEENSKTSPRSHRSDGEFSPHSHYSDSDEAS
With B1, the binding result in test [1] and in test [2] was “binds” throughout.
